Test results taken from PubChem BioAssay AID248 (DTP/NCI, 2004).
The list shows only some results of the screen, not a fair sample: it gathers tests that were run many times, whatever their T/C, doses with no T/C, and many T/C values between a quarter and a half above the control. Other doses and runs of a compound stand elsewhere. T/C: endpoint of the treated group in % of that of the vehicle group. Some entries give survivors of the animals treated and no T/C: the source files T/C as zero there, which appears to mark a toxic dose or a test without result, not a measured value. Some doses without a T/C left all or most animals alive at the check, yet need not have been tolerated: survival well below the control is almost never listed, so the zero probably covers shortened survival too. Survivors were counted at the toxicity check, usually on the fifth day, unless a day is given; later deaths do not show. Schedules are NCI's codes, taken here to give the interval after Q, in days (D) or hours (H), and the number of doses after X. Some doses were run more than once; the results are listed from low to high. For survival time, the PubChem record calls one and a half times the control and up active, and a quarter to a half above the control has no call in these data; cut-offs in other NCI protocols can differ. Some T/C values are followed by the survivors on the day toxicity was checked, most often the fifth; without a count, all were alive then.

Tested on: L1210 leukemia ip in BDF1 mice, survival T/C
Experiment: NCI In Vivo Anticancer Drug Screen. Data for tumor model L1210 Leukemia (intraperitoneal) in B6D2F1 (BDF1) mice
Conditions: higher T/C = longer survival
[1] = T/C endpoint: mean survival time, dose: 100.0 mg/kg/injection, schedule: Q01DX009 (ip), vehicle: saline with Tween-80
[2] = T/C endpoint: mean survival time, dose: 400.0 mg/kg/injection, schedule: Q04DX003 (ip), vehicle: saline with Tween-80
[3] = T/C endpoint: mean survival time, dose: 400.0 mg/kg/injection, schedule: Q04DX003 (ip), vehicle: saline
[4] = T/C endpoint: mean survival time, dose: 400.0 mg/kg/injection, schedule: Q04DX003 (ip), vehicle: Klucel (hydroxypropylcellulose) (HPC)
[5] = T/C endpoint: mean survival time, dose: 400.0 mg/kg/injection, schedule: Q01DX001 (ip), vehicle: other
[6] = T/C endpoint: mean survival time, dose: 400.0 mg/kg/injection, schedule: Q01DX009 (ip), vehicle: saline
[7] = T/C endpoint: mean survival time, dose: 400.0 mg/kg/injection, schedule: Q04DX002 (ip), vehicle: Klucel (hydroxypropylcellulose) (HPC)
[8] = T/C endpoint: mean survival time, dose: 400.0 mg/kg/injection, schedule: Q01DX001 (ip), vehicle: saline

Clc1ccc(-c2ncc3cnccn23)cc1Cl
survivor count [1]: 3 of 6
survivor count (T/C endpoint: mean survival time, dose: 200.0 mg/kg/injection, schedule: Q04DX003 (ip), vehicle: saline with Tween-80): 2 of 6
survivor count [2]: 0 of 6

CN(C)C(=S)S/C=C\C(=O)O
T/C (T/C endpoint: mean survival time, dose: 100.0 mg/kg/injection, schedule: Q04DX002 (ip), vehicle: Klucel (hydroxypropylcellulose) (HPC)): 125 % of control

CC1CCCCN1P(N1CCCCC1C)N1CCCCC1C (stereo not drawn)
survivor count (T/C endpoint: mean survival time, dose: 400.0 mg/kg/injection, schedule: Q04DX002 (ip), vehicle: saline with Tween-80): 0 of 3

NC1CC(N)CC(N)C1 (stereo not drawn)
survivor count (T/C endpoint: mean survival time, dose: 200.0 mg/kg/injection, schedule: Q04DX003 (ip), vehicle: saline): 5 of 6
survivor count [3]: 0 of 6

CC(C)N1C(=O)c2cccc3c(Br)ccc(c23)C1=O
survivor count [4]: 1 of 6

CCN(CC)c1ccc(NC(=S)Nc2cccc(C(F)(F)F)c2)c(C)c1
survivor count (T/C endpoint: mean survival time, dose: 400.0 mg/kg/injection, schedule: Q01DX009 (ip), vehicle: Klucel (hydroxypropylcellulose) (HPC)): 6 of 6

CCCOC1=C(Br)C(=O)c2ccccc2C1=O
survivor count (T/C endpoint: mean survival time, dose: 60.0 mg/kg/injection, schedule: Q01DX001 (ip), vehicle: carboxymethylcellulose (CMC)): 1 of 6
survivor count (T/C endpoint: mean survival time, dose: 75.0 mg/kg/injection, schedule: Q01DX001 (ip), vehicle: carboxymethylcellulose (CMC)): 0 of 6
survivor count (T/C endpoint: mean survival time, dose: 150.0 mg/kg/injection, schedule: Q01DX001 (ip), vehicle: carboxymethylcellulose (CMC)): 2 of 6
survivor count (T/C endpoint: mean survival time, dose: 300.0 mg/kg/injection, schedule: Q01DX001 (ip), vehicle: carboxymethylcellulose (CMC)): 1 of 6

O=C(CCCC(=O)N/N=C/c1cccc(Cl)c1)N/N=C\c1cccc(Cl)c1
survivor count (T/C endpoint: mean survival time, dose: 200.0 mg/kg/injection, schedule: Q01DX001 (ip), vehicle: other): 4 of 4

CC(C)CC(NC(=O)CCl)C(=O)NCC(=O)O (stereo not drawn)
survivor count (T/C endpoint: mean survival time, dose: 200.0 mg/kg/injection, schedule: Q01DX009 (ip), vehicle: saline with Tween-80): 3 of 6
survivor count (T/C endpoint: mean survival time, dose: 400.0 mg/kg/injection, schedule: Q01DX009 (ip), vehicle: saline with Tween-80): 3 of 6

CCCN(C)N=Nc1ccccc1C(N)=O
T/C [1]: 131 and 134 % of control
T/C [5]: 140 % of control

O=C(O)C(O)c1ccc(Cl)cc1 (stereo not drawn)
survivor count [6]: 0 of 6

CCCCCCCC(=O)OCC(=O)[C@]1(O)Cc2c(O)c3c(c(O)c2[C@@H](OC2CC(N)C(O)C(C)O2)C1)C(=O)c1c(OC)cccc1C3=O (stereo partly drawn)
T/C (T/C endpoint: mean survival time, dose: 1.3 mg/kg/injection, schedule: Q04DX003 (ip), vehicle: alcohol): 133 % of control
T/C (T/C endpoint: mean survival time, dose: 2.0 mg/kg/injection, schedule: Q04DX003 (ip), vehicle: alcohol): 138 % of control
T/C (T/C endpoint: mean survival time, dose: 3.0 mg/kg/injection, schedule: Q04DX003 (ip), vehicle: alcohol): 141 % of control
T/C (T/C endpoint: median survival time, dose: 0.5 mg/kg/injection, schedule: Q01DX009 (ip), vehicle: water): 131 % of control
T/C (T/C endpoint: median survival time, dose: 0.5 mg/kg/injection, schedule: Q03HX008 (ip), vehicle: water): 144 % of control
T/C (T/C endpoint: median survival time, dose: 0.5 mg/kg/injection, schedule: Q03HX024 (ip), vehicle: water): 131 % of control
T/C (T/C endpoint: median survival time, dose: 1.0 mg/kg/injection, schedule: Q01DX009 (ip), vehicle: water): 127 % of control
T/C (T/C endpoint: median survival time, dose: 1.0 mg/kg/injection, schedule: Q03HX008 (ip), vehicle: water): 131 % of control [9 of 10 alive]
T/C (T/C endpoint: median survival time, dose: 2.0 mg/kg/injection, schedule: Q01DX009 (ip), vehicle: water): 131 % of control
survivor count (T/C endpoint: median survival time, dose: 2.0 mg/kg/injection, schedule: Q03HX024 (ip), vehicle: water): 10 of 10
survivor count (T/C endpoint: median survival time, dose: 4.0 mg/kg/injection, schedule: Q03HX008 (ip), vehicle: water): 4 of 10
survivor count (T/C endpoint: median survival time, dose: 4.0 mg/kg/injection, schedule: Q03HX024 (ip), vehicle: water): 2 of 10
T/C (T/C endpoint: median survival time, dose: 5.0 mg/kg/injection, schedule: Q01DX001 (ip), vehicle: water): 134 % of control
survivor count (T/C endpoint: median survival time, dose: 8.0 mg/kg/injection, schedule: Q01DX009 (ip), vehicle: water): 10 of 10
survivor count (T/C endpoint: median survival time, dose: 8.0 mg/kg/injection, schedule: Q03HX008 (ip), vehicle: water): 0 of 10
T/C (T/C endpoint: median survival time, dose: 8.0 mg/kg/injection, schedule: Q04DX003 (ip), vehicle: water): 134 % of control
survivor count (T/C endpoint: median survival time, dose: 16.0 mg/kg/injection, schedule: Q04DX003 (ip), vehicle: water): 10 of 10
survivor count (T/C endpoint: median survival time, dose: 20.0 mg/kg/injection, schedule: Q01DX001 (ip), vehicle: water): 8 of 10
survivor count (T/C endpoint: median survival time, dose: 40.0 mg/kg/injection, schedule: Q01DX001 (ip), vehicle: water): 4 of 10
survivor count (T/C endpoint: median survival time, dose: 40.0 mg/kg/injection, schedule: Q08DX002 (ip), vehicle: water): 5 of 10

CC(CC(=O)O)C1Nc2ccccc2S(=O)(=O)C(c2ccccc2)C1=O (stereo not drawn)
survivor count (T/C endpoint: mean survival time, dose: 200.0 mg/kg/injection, schedule: Q04DX003 (ip), vehicle: Klucel (hydroxypropylcellulose) (HPC)): 1 of 6
survivor count [4]: 0 of 6 and 6 of 6

CC(C)(C)C(=O)Cn1nnnc1C(=O)C(C)(C)C
survivor count (T/C endpoint: mean survival time, dose: 400.0 mg/kg/injection, schedule: Q01DX001 (ip), vehicle: Klucel (hydroxypropylcellulose) (HPC)): 0 of 6

Cc1ccc(Cl)cc1S
survivor count (T/C endpoint: mean survival time, dose: 200.0 mg/kg/injection, schedule: Q01DX009 (ip), vehicle: water): 0 of 6
survivor count (T/C endpoint: mean survival time, dose: 200.0 mg/kg/injection, schedule: Q04DX003 (ip), vehicle: water): 1 of 6
survivor count (T/C endpoint: mean survival time, dose: 400.0 mg/kg/injection, schedule: Q01DX009 (ip), vehicle: water): 0 of 6
survivor count (T/C endpoint: mean survival time, dose: 400.0 mg/kg/injection, schedule: Q04DX003 (ip), vehicle: water): 0 of 6

O=C(O)CC(CO)C(c1ccccc1)c1ccccc1 (stereo not drawn)
survivor count [7]: 1 of 3

O=C(O)C(=O)Nc1ncn[nH]1
T/C (T/C endpoint: mean survival time, dose: 25.0 mg/kg/injection, schedule: Q01DX005 (ip), vehicle: Klucel (hydroxypropylcellulose) (HPC)): 126 % of control
survivor count (T/C endpoint: mean survival time, dose: 100.0 mg/kg/injection, schedule: Q01DX005 (ip), vehicle: Klucel (hydroxypropylcellulose) (HPC)): 0 of 3
survivor count (T/C endpoint: mean survival time, dose: 200.0 mg/kg/injection, schedule: Q01DX005 (ip), vehicle: Klucel (hydroxypropylcellulose) (HPC)): 2 of 3
survivor count [7]: 0 of 3

O=C(O)CCCl
survivor count (T/C endpoint: mean survival time, dose: 100.0 mg/kg/injection, schedule: Q01DX001 (ip), vehicle: saline): 4 of 4
survivor count [8]: 1 of 4
survivor count [3]: 1 of 6

CCCCCC(Oc1ccc(Cl)cc1)C(=O)O (stereo not drawn)
survivor count [4]: 1 of 6

NC(Cn1ccc(=O)c(O)c1)C(=O)O (stereo not drawn)
survivor count [6]: 3 of 6
survivor count (T/C endpoint: mean survival time, dose: 1200.0 mg/kg/injection, schedule: Q01DX009 (ip), vehicle: saline): 4 of 6
survivor count (T/C endpoint: mean survival time, dose: 1600.0 mg/kg/injection, schedule: Q01DX009 (ip), vehicle: saline): 2 of 6

COc1cc2cncc(CC(=O)c3ccc4c(c3)OCO4)c2cc1OC
survivor count [2]: 6 of 6

CC(C)=NC(=O)NO.[Cl][Co][Cl]
T/C (T/C endpoint: mean survival time, dose: 75.0 mg/kg/injection, schedule: Q04DX003 (ip), vehicle: saline): 126 % of control
survivor count (T/C endpoint: mean survival time, dose: 150.0 mg/kg/injection, schedule: Q01DX001 (ip), vehicle: saline): 0 of 6
survivor count (T/C endpoint: mean survival time, dose: 150.0 mg/kg/injection, schedule: Q04DX003 (ip), vehicle: saline): 4 of 6
survivor count (T/C endpoint: mean survival time, dose: 300.0 mg/kg/injection, schedule: Q01DX001 (ip), vehicle: saline): 0 of 6

CNC1(c2ccccc2)CC2CCC(C2)C1=O (stereo not drawn)
survivor count (T/C endpoint: mean survival time, dose: 100.0 mg/kg/injection, schedule: Q04DX003 (ip), vehicle: saline): 1 of 6
survivor count (T/C endpoint: mean survival time, dose: 200.0 mg/kg/injection, schedule: Q01DX001 (ip), vehicle: saline): 0 of 6
survivor count [8]: 0 of 6

CCCNC(=O)Oc1ccc(SC)cc1
survivor count [5]: 2 of 6
survivor count (T/C endpoint: mean survival time, dose: 400.0 mg/kg/injection, schedule: Q01DX009 (ip), vehicle: other): 3 of 3
